According to patent US11612570B2, “Decreased adhesivity receptor-targeted nanoparticles for Fn14-positive tumors” (UNIVERSITY OF MARYLAND, BALTIMORE, priority 2014, dated 2023):
At least one compound was matched to its structure with a doubt left.

What was measured:
Fn14+ GBM44 PDX tumor = assay: GBM44 PDX model treatment; settings: mouse, in vivo
glioblastoma = settings: adults with glioblastoma, concurrent with radiation therapy; cited from earlier work

Cn1nnc2c(C(N)=O)ncn2c1=O [temozolomide]
tumor susceptibility to treatment (Fn14+ GBM44 PDX tumor): susceptible to treatment | median survival (glioblastoma): about 14.6 months | two-year survival (glioblastoma): 30%
